Literature values as cited in patent US9913873B2, “Turmeric extract containing soft pastilles” (priority 2013, dated 2018).

Details: background statement; cited from earlier work

SMILES: COc1cc(/C=C/C(=O)CC(=O)/C=C/c2ccc(O)c(OC)c2)ccc1O [Curcumin]
- Solubility in water: insoluble
